Data reported in US20190194322A1.
Results are given in words; binding and its absence hold for the method and conditions named. Binding seen in cells or lysates may run through a third protein. Some entries that bind do so weakly or less than the wild type. Sequences can lack the tags named with a protein.

Tests used:
[1] = target: T1, human VISTA, endogenous, membrane bound (PBMCs, anti-CD3 activated T cells) (human (homo sapiens)), Q9H7M9; test: co-immunoprecipitation (FIG. 2 legend); conditions: remark: other sources report otherwise
[2] = target: T1, human VISTA, endogenous, membrane bound …; test: pull-down from PBMC lysate on streptavidin beads, immunoblot with anti-human VISTA (FIG. 2); conditions: remark: other sources report otherwise

binding [1]: binds | binding [2]: binds
B1: VSIG3 His-fusion, Q5DX21 23-241 (ligand, human, UniProt Q5DX21 23-241, looked up, not shown: small tags and cut ends)
chain: LEVSESPGSIQVARGQPAVLPCTFTTSAALINLNVIWMVTPLSNANQPEQVILYQGGQMFDGAPRFHGRVGFTGTMPATNVSIFINNTQLSDTGTYQCLVNNLPDIGGRNIGVTGLTVLVPPSAPHCQIQGSQDIGSDVILLCSSEEGIPRPTYLWEKLDNTLKLPPTATQDQVQGTVTIRNISALSSGLYQCVASNAIGTSTCLLDLQVISPQPRNIG
modifications: here or on the partner: biotinylated (in the co-immunoprecipitation of FIG. 2)
